Assay results published in the supplement of paper PMC3334620.
The full ranking holds about 33,000 sequences; the median of “E-score (-0.5 to 0.5)” is about -0.016, and the highest 2% start at about 0.3. The list shows a part of the results.

Each sequence was assayed against T1, Yer184c (UniProt P39961) (assay: PBM E-score (8-mer binding enrichment) (E-score (-0.5 to 0.5)); higher = stronger / more preferred TF binding). Conditions: protein concentration: 100 nM; construct: GST-full length.
T1 sequence: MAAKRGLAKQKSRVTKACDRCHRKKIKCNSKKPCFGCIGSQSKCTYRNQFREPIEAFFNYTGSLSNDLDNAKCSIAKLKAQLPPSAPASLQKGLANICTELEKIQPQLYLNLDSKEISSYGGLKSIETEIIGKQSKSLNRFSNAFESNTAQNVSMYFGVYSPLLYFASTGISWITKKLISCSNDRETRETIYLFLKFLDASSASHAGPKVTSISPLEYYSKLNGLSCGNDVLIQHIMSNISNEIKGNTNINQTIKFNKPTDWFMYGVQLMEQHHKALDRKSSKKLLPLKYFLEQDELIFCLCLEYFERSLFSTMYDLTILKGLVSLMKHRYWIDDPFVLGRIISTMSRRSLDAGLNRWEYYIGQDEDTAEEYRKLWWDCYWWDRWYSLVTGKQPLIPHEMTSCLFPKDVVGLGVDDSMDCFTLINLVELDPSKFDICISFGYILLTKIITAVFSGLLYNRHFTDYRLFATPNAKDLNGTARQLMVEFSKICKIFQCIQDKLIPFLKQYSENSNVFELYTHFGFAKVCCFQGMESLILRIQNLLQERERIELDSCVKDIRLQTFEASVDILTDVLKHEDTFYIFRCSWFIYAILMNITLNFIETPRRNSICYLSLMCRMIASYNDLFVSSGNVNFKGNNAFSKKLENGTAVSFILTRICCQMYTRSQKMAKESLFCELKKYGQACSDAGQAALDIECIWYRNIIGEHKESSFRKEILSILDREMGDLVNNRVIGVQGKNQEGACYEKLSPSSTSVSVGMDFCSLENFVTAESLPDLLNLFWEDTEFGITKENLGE
How it was run: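 Using PURExpress in vitro transcription/translation, GST-tagged yeast transcription factors were made in full-length or DNA-binding-domain form. These were applied at about 100-200 nM to double-stranded universal all-10-mer Agilent arrays, and bound protein was detected with fluorescent anti-GST. Scans were normalised with masliner before the Universal PBM Analysis Suite assigned E-scores to ungapped eight-base words pooled with their reverse complements.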

Row | Sequence | PBM E-score
1 | AAACCAGA | 0.0295
2 | AGCGATGC | -0.237
3 | GCGTGGCC | -0.214
4 | ATTGGTAA | -0.00982
5 | AAGTTGAC | 0.0297
6 | GGAGCAAC | 0.00011
7 | ACAGCGCT | 0.00749
8 | CATCACCC | -0.152
9 | CAAAAGCA | 0.0284
10 | GTGAAAAC | 0.0796
11 | AGCGAAGC | -0.11
12 | AAATCCGG | 0.394
13 | GGGAAACC | 0.121
14 | GAACCGAA | 0.288
15 | TTAATCAA | 0.198
16 | CCGAGACC | 0.176
17 | GTACTATA | 0.176
18 | CAGGAAAC | 0.117
19 | AACTTACG | 0.0113
20 | GCTATTAC | 0.0192
21 | GGGAATAC | 0.0278
22 | GGTCAGTA | -0.0202

Row | Sequence | PBM E-score
23 | GGATGCCA | -0.169
24 | CCACTTGA | -0.0483
25 | ACAGTCTA | -0.0163
26 | TAGCACTA | -0.16
27 | AGGTAAAT | -0.0404
28 | CGGGGCTC | -0.147
29 | GGTGATAA | -0.105
30 | ATCCCCCG | -0.116
31 | CTAAACAA | -0.068
32 | ACCAACCT | -0.143
33 | CGAGGGGA | -0.0468
34 | CGTTAATC | 0.0724
35 | CTAATATC | 0.181
36 | GCCAGATA | -0.0238
37 | ACCATCAA | -0.0539
38 | CCGTCAGC | 0.0445
39 | CTCACTAA | -0.0113
40 | AACTGCCA | -0.134
41 | AGCGCATA | -0.0254
42 | CGCTCAGA | 0.0821
43 | CCTTCGGA | 0.327
44 | ATCCCACG | -0.209

Row | Sequence | PBM E-score
45 | AGCATACG | -0.0401
46 | CTTAGGTC | 0.0331
47 | CCTATAGC | -0.253
48 | ACGTCATA | 0.0381
49 | AGTCCTTG | -0.0369
50 | GATGGCAA | 0.12
51 | GGACGGAC | -0.0479
52 | TAAAGCTA | -0.0256
53 | CGCCGCTA | 0.044
54 | AGTGCCCA | -0.152
55 | AACTGCCG | 0.21
56 | CGCAAGAA | 0.221
57 | CCGAGACG | 0.246
58 | GCAAGAAA | 0.161
59 | ATCGTATC | -0.0614
60 | AATACCGG | 0.336
61 | CGACTTTC | 0.0556
62 | GCACAGTA | 0.00244
63 | CATGGGAC | -0.14
64 | AACGGTCA | 0.149
65 | GCAGGGCC | -0.263
66 | TAGATACA | 0.00426

From entry 61 to 63, as listed above:
Row | Sequence | PBM E-score
61 | CGACTTTC | 0.0556
62 | GCACAGTA | 0.00244
63 | CATGGGAC | -0.14

Further entries:

Row | Sequence | PBM E-score
67 | AAGGCGTC | -0.15
68 | AACCACAG | -0.208
69 | GTCGAGGA | -0.267
70 | ACCATGCC | -0.0758
71 | CAGGCCGG | 0.108
72 | ACGAAATA | 0.11
73 | GCCGTACC | 0.178
74 | ATCGTCAG | -0.0617
75 | CTACTGCA | -0.16
76 | ATCACTGA | 0.0166
77 | CAAGAGAG | -0.0284
78 | GAAATATA | 0.278
79 | CGCCTGTC | -0.162
80 | CAGTCAGG | -0.228
81 | CCTCGCAG | -0.234
82 | ACGCCAAT | -0.0124
83 | ATTGTGAG | 0.09
84 | AATAGACG | 0.0155
85 | CAGTCCGA | 0.182
86 | CCGTGGAG | 0.0232
